Laboratory results reported in the supplement of paper PMC9233669.
This sample is rich in variants without activity.

Tests used:
biotinyl-Leu-oxazolone = assay: self-aminoacylation, catalytic enhancement (BLO) (fold over background); higher = more active; k-Seq, kA / k0A0; sequences stand for … in GGGAAUGGAUCCACAUCUACGAAUUC…UUCACUGCAGACUUGACGAAGCUG
Summary of the method: (§1)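 Mutagenized RNA pools with a 21-nt variable region (0.43 μM) reacted with each biotinyl-aminoacyl-oxazolone at 2–1250 μM. Reactions ran in 50 μL HEPES/NaCl/KCl/MgCl2/CaCl2 buffer with 5% acetonitrile, pH 6.9–7.0, for 90 minutes at room temperature. Streptavidin-captured RNA was quantified by triplicate qPCR and Illumina sequencing, and per-sequence fraction reacted was fit to a pseudo-first-order model with 1000 bootstraps. Catalytic enhancement is median kA divided by the uncatalyzed rate, the low-activity peak of a bimodal Gaussian fit.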

biotinyl-Ile-oxazolone = assay: self-aminoacylation, catalytic enhancement (BIO) (fold over background); higher = more active; k-Seq, kA / k0A0; sequences stand for … in GGGAAUGGAUCCACAUCUACGAAUUC…UUCACUGCAGACUUGACGAAGCUG
Summary of the method: as §1

biotinyl-Phe-oxazolone = assay: self-aminoacylation, catalytic enhancement (BFO) (fold over background); higher = more active; k-Seq, kA / k0A0; sequences stand for … in GGGAAUGGAUCCACAUCUACGAAUUC…UUCACUGCAGACUUGACGAAGCUG
Summary of the method: as §1

biotinyl-Trp-oxazolone = assay: self-aminoacylation, catalytic enhancement (BWO) (fold over background); higher = more active; k-Seq, kA / k0A0; sequences stand for … in GGGAAUGGAUCCACAUCUACGAAUUC…UUCACUGCAGACUUGACGAAGCUG
Summary of the method: as §1

biotinyl-Val-oxazolone = assay: self-aminoacylation, catalytic enhancement (BVO) (fold over background); higher = more active; k-Seq, kA / k0A0; sequences stand for … in GGGAAUGGAUCCACAUCUACGAAUUC…UUCACUGCAGACUUGACGAAGCUG
Summary of the method: as §1

biotinyl-Met-oxazolone = assay: self-aminoacylation, catalytic enhancement (BMO) (fold over background); higher = more active; k-Seq, kA / k0A0; sequences stand for … in GGGAAUGGAUCCACAUCUACGAAUUC…UUCACUGCAGACUUGACGAAGCUG
Summary of the method: as §1

| Sequence | self-aminoacylation (biotinyl-Leu-oxazolone) | self-aminoacylation (biotinyl-Ile-oxazolone) | self-aminoacylation (biotinyl-Phe-oxazolone) | self-aminoacylation (biotinyl-Trp-oxazolone) | self-aminoacylation (biotinyl-Val-oxazolone) | self-aminoacylation (biotinyl-Met-oxazolone) |
| --- | --- | --- | --- | --- | --- | --- |
| AUUAACCUAAGUCAUCGGGUG [Fam2.2 aminoacylation ribozyme variant] | 12.1 | 4.9 | 63.5 | 7.95 | 4.74 | 8.41 |
| AUUACACUGGACAUCGAGUGA [Fam2.1 aminoacylation ribozyme variant] | 6.11 | 3.23 | 14.9 | 6.45 | 2.87 | 5.83 |
| AUUACCCUCGUCAUCUAGUGA [Fam2.1 aminoacylation ribozyme variant] | 3.57 | 2.3 | 9.86 | 4.43 | 2.7 | 3.26 |
| AUUACCCUGAUCUUCGAGUGA [Fam2.1 aminoacylation ribozyme variant] | 5.04 | 2.56 | 15.7 | 6.11 | 2.74 | 4.57 |
| AUUACCCUGCUCAUCAAGUGA [Fam2.1 aminoacylation ribozyme variant] | 0.571 | 0.78 | 0.6 | 0.924 | 0.772 | 0.613 |
| AUUACCCUGCUCAUCGAGUGC [Fam2.1 aminoacylation ribozyme variant] | 0.555 | 0.616 | 1.13 | 0.392 | 0.835 | 0.666 |
| AUUACCCUGGACAUCGAGUCA [Fam2.1 aminoacylation ribozyme variant] | 0.637 | 0.753 | 0.367 | 0.376 | 0.672 | 0.865 |
| AUUACCCUGGACAUCGAGUGU [Fam2.1 aminoacylation ribozyme variant] | 3.35 | 1.51 | 5.95 | 4.38 | 2.66 | 3.35 |
| AUUACCCUGGGCAUCUAGUGA [Fam2.1 aminoacylation ribozyme variant] | 7.13 | 3 | 44.6 | 7.33 | 3.38 | 6.2 |
| AUUACCCUGGUACUCGAGUGA [Fam2.1 aminoacylation ribozyme variant] | 2.66 | 1.76 | 10.3 | 3.35 | 1.96 | 2.66 |
| AUUACCCUGGUCAUCCACUGA [Fam2.1 aminoacylation ribozyme variant] | 0.808 | 0.99 | 0.601 | 0.498 | 1.07 | 0.997 |
| AUUACCCUGGUCAUCCAGUAA [Fam2.1 aminoacylation ribozyme variant] | 1.27 | 1.34 | 0.819 | 2.35 | 1.11 | 1.18 |
| AUUACCCUGGUCAUCCAGUCA [Fam2.1 aminoacylation ribozyme variant] | 1.17 | 1.16 | 0.568 | 0.463 | 0.975 | 0.923 |
| AUUACCCUGGUCAUCCAUUGA [Fam2.1 aminoacylation ribozyme variant] | 1.14 | 1.08 | 1.15 | 0.684 | 1.08 | 0.84 |
| AUUACCCUGGUCAUCGAAGGA [Fam2.1 aminoacylation ribozyme variant] | 0.661 | 0.794 | 1.08 | 0.729 | 1.01 | 0.904 |
| AUUACCCUGGUCAUCGAAUGA [Fam2.1 aminoacylation ribozyme variant] | 1.08 | 1 | 0.974 | 0.908 | 1.06 | 1.07 |
| AUUACCCUGGUCAUCGAGUCA [Fam2.1 aminoacylation ribozyme variant] | 1.08 | 0.903 | 1.61 | 0.857 | 1.01 | 1.07 |
| AUUACCCUGGUCAUCGAUGGA [Fam2.1 aminoacylation ribozyme variant] | 0.926 | 1.03 | 1.14 | 1.19 | 1.12 | 1.08 |
| AUUACCCUGGUCAUCGAUUUA [Fam2.1 aminoacylation ribozyme variant] | 0.965 | 0.863 | 0.979 | 0.727 | 0.917 | 1.07 |
| AUUACCCUGGUCAUGCAGUGA [Fam2.1 aminoacylation ribozyme variant] | 1.17 | 1.07 | 0.826 | 0.944 | 1.13 | 1.39 |
| AUUACCCUGGUCAUGGAGUAA [Fam2.1 aminoacylation ribozyme variant] | 1.51 | 1.55 | 0.851 | 0.841 | 1.11 | 1.57 |
| AUUACCCUGGUCAUGGAUUGA [Fam2.1 aminoacylation ribozyme variant] | 0.845 | 0.919 | 0.696 | 1.02 | 0.769 | 0.895 |
| AUUACCCUGGUCAUUGAGUCA [Fam2.1 aminoacylation ribozyme variant] | 0.565 | 0.714 | 0.839 | 0.529 | 0.781 | 0.726 |
| AUUACCCUGGUCCUCGACUGA [Fam2.1 aminoacylation ribozyme variant] | 0.695 | 0.806 | 0.483 | 0.868 | 0.845 | 0.69 |
| AUUACCCUGGUCCUCGGGUGA [Fam2.1 aminoacylation ribozyme variant] | 10.4 | 5.18 | 69.6 | 9.25 | 6.25 | 9.89 |
| AUUACCCUGGUGAUCGAGUGC [Fam2.1 aminoacylation ribozyme variant] | 1.06 | 0.883 | 0.485 | 0.768 | 0.941 | 0.942 |
